# Where “and” joins values, the source holds several entries; their conditions need not be identical. Equal values may be shown once. Hit rate of the full screen: of about 580,000 compounds, about 6,100 (1.1%) were called active. Inconclusive means that the source gave no clear call. Such entries were picked first, then a sample of the others. Calls come from the whole dose curve; as a rule, active = well fitted inhibition curve with a large enough effect; inconclusive = small, poorly fitted or top-dose-only effect, or another doubt; inactive = no such curve, though single readings can be large or run the other way. Potencies of inconclusive entries are doubtful fits and often do not repeat.
# Chains of the proteins cited; added tags and fusions are not shown. Lines headed by an entry give the natural chain unless they say otherwise; changes in a name come on top.
# UniProt P18054: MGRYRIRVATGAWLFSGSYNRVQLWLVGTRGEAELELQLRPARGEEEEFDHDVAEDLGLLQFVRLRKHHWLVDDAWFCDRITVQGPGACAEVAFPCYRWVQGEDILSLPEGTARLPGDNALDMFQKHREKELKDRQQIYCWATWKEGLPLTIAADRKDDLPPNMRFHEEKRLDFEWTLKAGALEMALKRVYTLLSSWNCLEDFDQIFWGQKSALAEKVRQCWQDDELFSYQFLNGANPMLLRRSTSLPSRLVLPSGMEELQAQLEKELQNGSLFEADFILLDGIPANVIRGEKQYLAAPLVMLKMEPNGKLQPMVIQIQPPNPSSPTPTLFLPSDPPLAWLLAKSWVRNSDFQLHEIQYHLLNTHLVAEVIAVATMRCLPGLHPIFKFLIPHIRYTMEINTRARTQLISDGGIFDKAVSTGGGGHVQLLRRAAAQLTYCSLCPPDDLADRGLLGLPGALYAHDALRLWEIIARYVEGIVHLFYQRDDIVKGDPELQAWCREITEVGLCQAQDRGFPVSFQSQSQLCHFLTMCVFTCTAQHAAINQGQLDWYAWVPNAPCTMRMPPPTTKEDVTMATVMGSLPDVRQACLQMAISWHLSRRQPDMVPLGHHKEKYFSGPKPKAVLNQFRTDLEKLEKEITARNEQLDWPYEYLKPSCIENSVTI
# Target: Polyunsaturated fatty acid lipoxygenase ALOX12 (Homo sapiens) (UniProt P18054)
# Assay: Primary qHTS assay for inhibitors of human arachidonate 12S-lipoxygenase (ALOX12): Round 2
# Details: purified 12hLO, xylenol orange hydroperoxide absorbance; activity change, negative = inhibition: at 108 µM (top of the series) unless noted
# Outline: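 Hydroperoxide product was detected by ferrous iron/xylenol orange as the 573 to 405 nm absorbance ratio. Arachidonic acid at 40 uM (final) was turned over for 30 min at room temperature by 150 nM human 12hLO, pH 7.0 Hepes buffer, after 15 min compound preincubation.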
# % is set by controls: 0 for no effect and ±100 for the full control effect; potency is the fitted concentration of half-maximal effect.
SMILES,Potency,"activity change, negative = inhibition"
CCN(CC)Cc1cnc2c(C(=O)NC3CCCNC3)cnn2c1 (configuration not stated),"inconclusive: 7.94 µM [inhibitor, partial curve]",
CC(=O)N1CC2(Cc3ccccc31)CN(C(=O)c1ccc(Cl)nc1)C2,inactive,
COc1ccc2c3c([nH]c2c1)C(C)N(C(C)=O)CC3 (configuration not stated),"inconclusive: 112 µM [inhibitor, single point]",
CCOc1ccc(-c2nc(SCC(=O)NC3CCCC3)c(-c3ccccc3)[nH]2)cc1OC,inactive,
Cc1ccc(S(=O)(=O)NNC(=O)c2ccc(F)cc2)cc1,"inconclusive: 3.55 µM [inhibitor, full curve, poor fit]",
Cc1cccc(OCC(=O)Nc2ccc3oc(-c4ccncc4)nc3c2)c1,"inconclusive: 0.251 µM [inhibitor, full curve, poor fit]",
CCOc1ccc(NC(=O)/C=C\C(=O)N(c2ccc(C(C)C)cc2)C(C(=O)NCc2ccco2)c2ccc(F)cc2)cc1 (configuration not stated),,inconclusive: -31.4% [inhibitor]
C=CCOc1cccc(C2C(C(=O)c3ccc(C)o3)=C(O)C(=O)N2Cc2ccncc2)c1 (configuration not stated),"inconclusive: 4.47 µM [inhibitor, full curve, poor fit]",
COC(=O)c1c(NC(=O)c2cc(=O)c3cc(C)cc(C)c3o2)sc2c1CCC2,inactive,
N#CC(C#N)=Cc1cc(-c2ccccc2)n(-c2ccccc2)c1-c1ccccc1,"inconclusive: 25.1 µM [inhibitor, partial curve, poor fit]",
COc1ccc(C(O)c2nc(-c3ccc(Cl)cc3)cs2)cc1 (configuration not stated),"inconclusive: 44.7 µM [inhibitor, partial curve, poor fit]",
Oc1ccccc1Oc1ccc2nnc(-c3ccc(Br)cc3)n2n1,"inconclusive: 50.1 µM [inhibitor, single point]",
COc1ccccc1NC(=O)c1cc2cc3ccc(OC)c(Cl)c3nc2s1,"inconclusive: 112 µM [inhibitor, partial curve, poor fit]",
CCOc1cc(/C=C(\C#N)C(=O)Nc2ccccc2C(=O)O)ccc1OC(=O)c1ccc(C)cc1,"inconclusive: 4.47 µM [inhibitor, full curve]",
CC1(C)CC(=O)C=C(C(=O)N2CCCC(C(=O)c3cccc(C(F)(F)F)c3)C2)O1 (configuration not stated),inactive,
Cc1ccc([C@H]2C[C@H](O)[C@@H](n3cc(-c4ccc(F)cc4)nn3)CN2Cc2cccs2)cc1,"inconclusive: 44.7 µM [inhibitor, partial curve, poor fit]",
Cc1ccc2nc(Nc3ccccc3C)cc(C)c2c1,"inconclusive: 50.1 µM [inhibitor, partial curve, poor fit]",
COCCNC(=O)c1onc(CSc2cc(C)ccc2C)c1C(=O)O,"inconclusive: 2.82 µM [inhibitor, full curve, poor fit]",
CCOCCCNC(=O)c1ccc2c(=O)n(Cc3ccc4c(c3)OCO4)c(=S)[nH]c2c1,inactive,
CC(OC(=O)c1ccc2ncsc2c1)C(=O)Nc1cccc(Cl)c1 (configuration not stated),"inconclusive: 50.1 µM [inhibitor, single point]",
Cc1cccc(-n2c(CNC(=O)c3ccc(S(=O)(=O)N4CCCCC4)cc3)n[nH]c2=S)c1,"inconclusive: 50.1 µM [inhibitor, partial curve, poor fit]",
COc1ccc(Nc2nccc3c(=O)cc(N4CCOCC4)oc23)cn1,active: 25.1 µM,
Cc1ccc(CNC(=O)CCS(=O)(=O)c2ccc(Br)cc2)cc1,inactive,

# 4 successive records already listed:
SMILES,Potency,"activity change, negative = inhibition"
CC(OC(=O)c1ccc2ncsc2c1)C(=O)Nc1cccc(Cl)c1 (configuration not stated),"inconclusive: 50.1 µM [inhibitor, single point]",
Cc1cccc(-n2c(CNC(=O)c3ccc(S(=O)(=O)N4CCCCC4)cc3)n[nH]c2=S)c1,"inconclusive: 50.1 µM [inhibitor, partial curve, poor fit]",
COc1ccc(Nc2nccc3c(=O)cc(N4CCOCC4)oc23)cn1,active: 25.1 µM,
Cc1ccc(CNC(=O)CCS(=O)(=O)c2ccc(Br)cc2)cc1,inactive,

# Next part:

SMILES,Potency,"activity change, negative = inhibition"
Cc1cccc(N2CCN(C(=O)CCCn3c(=S)[nH]c4cc5c(cc4c3=O)OCO5)CC2)c1C,inactive,
NC(=O)c1cccc(CN2CCC3(Cc4ccccc4N(C(=O)C4CCCC4)C3)C2)c1 (configuration not stated),"inconclusive: 35.5 µM [inhibitor, full curve]",
Nc1cccc(-c2ccc(Cl)c(Cl)c2)c1,"inconclusive: 39.8 µM [inhibitor, partial curve, poor fit]",
Cc1ccc2oc(C(=O)N(C)CC(=O)Nc3ccc(Br)cc3C)cc(=O)c2c1,"inconclusive: 39.8 µM [inhibitor, partial curve]",
COc1ccc(S(=O)(=O)N2CCC(Oc3ncccc3C(=O)N3CCOCC3)C2)cc1 (configuration not stated),inactive,
Cc1cc(Cl)ccc1NC(=O)CCC(=O)N/N=C/c1cc([N+](=O)[O-])ccc1O,inactive,
CCc1ccc(NC(=S)Nn2cnnc2)cc1,"inconclusive: 25.1 µM [inhibitor, partial curve, poor fit]",
N#Cc1cnc2ccccc2c1N1CCCCCC1,"inconclusive: 0.794 µM [inhibitor, partial curve, poor fit]",
COc1ccc2cc3cc(C(=O)NCc4ccco4)oc3nc2c1,inactive,
CC(C)(C)NC(=O)c1cc(-c2ccc3c(c2)OCO3)nc2ccccc12,"inconclusive: 14.1 µM [inhibitor, partial curve, poor fit] and inconclusive: 50.1 µM [inhibitor, partial curve, poor fit]",
CCC/C(O)=C1\C(=O)CC(C)(C)CC1=Nc1cccc([N+](=O)[O-])c1,"inconclusive: 50.1 µM [inhibitor, single point]",
O=S(=O)(Nc1ccc(-n2cccc2)cc1)c1ccc(Cl)cc1Cl,"inconclusive: 2.24 µM [inhibitor, full curve, poor fit]",
CNCc1ccc(-c2cccc(C(F)(F)F)c2)o1,"inconclusive: 50.1 µM [inhibitor, partial curve, poor fit]",
CCCN1C(=S)SC(C)(C)C1/[N+]([O-])=C/c1cccnc1 (configuration not stated),inactive,
CCOc1ccc(N(Cc2cc3cc(OC)ccc3[nH]c2=O)S(C)(=O)=O)cc1,"inconclusive: 2.82 µM [inhibitor, full curve, poor fit]",
Cc1cc(SCC(=O)Nc2ccc(F)cc2F)nc(=O)[nH]1,"inconclusive: 50.1 µM [inhibitor, partial curve, poor fit]",
CC(C)c1ccc2occ(-c3nn[nH]n3)c(=O)c2c1,inactive,
COc1ccc(-c2cc(C(=O)N3CCCCC3)c3ccccc3n2)cc1,inactive,
N#Cc1cccn1-c1nccc(-c2cccs2)n1,inactive,
COc1ccccc1C(=O)NC(=O)CSc1nnc2ccccn12,"inconclusive: 39.8 µM [inhibitor, single point]",
NC(=O)N1N=C2/C(=C/c3ccccc3)CCCC2C1c1ccccc1 (configuration not stated),"inconclusive: 112 µM [inhibitor, partial curve, poor fit]",
CC(=O)c1sc(NS(=O)(=O)c2ccc(C)cc2)nc1-c1ccccc1,"inconclusive: 89.1 µM [inhibitor, partial curve, poor fit]",
NC(=O)C1CCN([C@H]2[C@@H]3OC[C@@H](O3)[C@@H](NCc3ccncc3)[C@@H]2O)CC1,inactive,

SMILES,Potency,"activity change, negative = inhibition"
Cc1ccc(C(=O)NCCCNC(=O)c2ccccn2)cc1,inactive,
CNC(=O)c1cc2c(-c3ccccc3)nn(C)c2s1,inactive,
COc1cccc(C2CC(c3ccc(Cl)cc3)n3nc(N)nc3N2)c1 (configuration not stated),inactive,
Cc1cc(C)c2c(=O)[nH]c(SCC(=O)N3CCCCC3)nc2n1,"inconclusive: 28.2 µM [inhibitor, single point]",
O=S(=O)(c1ccc(Br)cc1)N1CCC(n2cnnc2C2CC2)CC1,inactive,
CC1CCCC(NC(=O)COC(=O)Cc2cn3ccsc3n2)C1C (configuration not stated),"inconclusive: 22.4 µM [inhibitor, partial curve, poor fit]",
Cc1ccc(C(=O)/C(=C/c2ccc(F)cc2)c2nc3ccccc3o2)cc1,inactive,
CCC1C(=O)C(C)(C)C(=O)OC1c1ccc([N+](=O)[O-])cc1 (configuration not stated),"inconclusive: 44.7 µM [inhibitor, partial curve]",
CN(C)C(=O)N1CCCC1c1nnc2n1CCNC2 (configuration not stated),"inconclusive: 12.6 µM [inhibitor, partial curve]",
CC(C)C(O)(C#CCN1CCCCCC1)c1ccccc1 (configuration not stated),"inconclusive: 4.47 µM [inhibitor, full curve, poor fit]",
COc1ccccc1Nc1nc(-c2sc(NC(=O)c3ccccc3)nc2C)cs1,"inconclusive: 70.8 µM [inhibitor, partial curve, poor fit]",
COc1cc(C(=O)NC(=S)NNC(=O)c2cnccn2)cc(OC)c1OC,"inconclusive: 44.7 µM [inhibitor, partial curve, poor fit]",
CCN(CC)CCNc1ccc(CO)c2oc3cc(Cl)ccc3c(=O)c12,"inconclusive: 44.7 µM [inhibitor, partial curve, poor fit]",
Cc1ccc(-c2csc(NS(=O)(=O)c3cccc(F)c3)n2)o1,active: 15.8 µM,
CO/N=C/NC(=O)N1OC[C@@H]2COc3ccc4ccccc4c3[C@@H]21,inactive,
Cc1ccc(C2(O)CCN(C(=O)C(N)CC3CCCC3)CC2)nc1 (configuration not stated),"inconclusive: 14.1 µM [inhibitor, partial curve]",
Cc1cccc(C)c1Nc1nnc(SCC(=O)Nc2ncc(C(F)(F)F)cc2Cl)s1,inactive,
CC[N+](CC)(CC)CCCOC1CC(C)CCC1C(C)C (configuration not stated),"inconclusive: 100 µM [inhibitor, partial curve, poor fit]",
CC1=C(C(=O)N2CCOCC2)CC(CC(=O)NCc2cccc3ccccc23)C(=O)N1Cc1ccc(C(C)(C)C)cc1 (configuration not stated),"inconclusive: 2.51 µM [inhibitor, single point]",
O=C1COc2ccc(-c3csc(NCC4CCCO4)n3)cc2N1 (configuration not stated),active: 44.7 µM,
Cc1cccc(-n2ncc3c(=O)[nH]c(SCC(=O)NCCC4=CCCCC4)nc32)c1,"inconclusive: 112 µM [inhibitor, single point]",
